Measured values taken from US9682964B2, “Amide compound” (Sumitomo Chemical Company, Limited, priority 2014, dated 2017).
Some results were stated once for a whole list of compounds, not compound by compound.

Legend:
Blattella germanica = test: Knockdown test by spraying oil formulation on Blattella germanica (Test Example 1); assay type: in vivo; conditions: active ingredient 2.0% w/v, sprayed with spray gun, ten Blattella germanica (5 males, 5 females)
Musca domestica = test: Knockdown test by spraying oil formulation on adult Musca domestica (Test Example 2); assay type: in vivo; conditions: active ingredient 2.0% w/v, 0.5 ml sprayed, ten adult Musca domestica

SMILES: O=C(NCC1CCOC1)c1ccc(COc2cccc3ccccc23)cn1 (stereo not shown) [Compound of the Present Invention (1), N-(tetrahydrofuran-3-ylmethyl)-5-(1-naphthyloxymethyl)pyridine-2-carboxylic acid amide]
- knockdown rate of the tested insects within 15 minutes (Blattella germanica): ≥ 80%

SMILES: O=C(NCC1CCOC1)c1ccc(COCc2ccc3ccccc3c2)cn1 (stereo not shown) [Compound of the Present Invention (2), N-(tetranydrofuran-3-ylmethyl)-5-(2-naphthylmethoxymethyl) pyridine-2-carboxylic acid amide]
- knockdown rate of the tested insects within 15 minutes (Blattella germanica): ≥ 80%
- knockdown rate of the tested insects within 15 minutes (Musca domestica): ≥ 80%

SMILES: O=C(NCC1CCOC1)c1ccc(CCOc2cccc3ccccc23)cn1 (stereo not shown) [Compound of the Present Invention (5), N-(tetrahydrofuran-3-ylmethyl)-5-[2-(1-naphthyloxy)ethyl]pyridine-2-carboxylic acid amide]
- knockdown rate of the tested insects within 15 minutes (Musca domestica): ≥ 80%
